Results published in patent publication US11987557B2, “Phenalene-1-one-containing photosensitizer composition, phenalene-1-one compound and the use thereof” ([…], priority 2017, dated 2024).
For at least one compound, name, drawing or mass did not settle the structure.

Assays:
[1] = tested on: Staphylococcus aureus ATCC 25923; experiment: Photodynamic inactivation of S. aureus on coated sample supports, LED 405 nm (Example 3); assay type: cell-based
Protocol: The photosensitizer was dissolved in the respective paint system and applied to various square sample supports (width: 4 cm, length: 4 cm, thickness: 3 mm) formed from PVC or PMMA and then dried. After drying the coating, a specific quantity of bacteria from the species Staphylococcus aureus ATCC 25923 was applied to the surface.
In this regard, firstly, an overnight (ON) culture of S. aureus in 5 mL of Mueller Hinton broth (Carl Roth GmbH+Co. KG, Karlsruhe, DE) was inoculated with a single colony from an agar plate and incubated at 37° C. and 180 rpm on a shaker for 18-20 hours.
On the day of the test, in each case 1 mL of ON culture was centrifuged (Hettich Universal 320 R centrifuge (Andreas Hettich GmbH & Co. KG, Tuttlingen, DE); swing-out rotor 1494; 10 Min, 3000 rpm, RT). The supernatant was discarded and the pellet was re-suspended in 1 mL of Milli-Q water, which is commercially available from Merck (KGaA, Darmstadt, DE) (designation “Milli-Q Integral Ultra-pure Water (Type 1)”). […]
On the following day, the colonies from all of the dilution stages which could be counted of an experiment were counted and the CFU/mL was calculated.
Next, from the value for the CFU/mL, the log10 eradication rate was calculated. […]

S. aureus = experiment: Long-term test of photoactive stability after pre-irradiation (Example 5); assay type: cell-based, Staphylococcus aureus
Protocol: In order to test the stability of the lacks produced, a long term test was carried out.
The test surfaces were pre-irradiated for different time periods (5, 25, 50, 75 h) at an output of 5 mW cm^−2 in order to establish whether the respective photosensitizer in PUR was affected in a manner such that the phototoxic activity of the surface was reduced:
Following the pre-irradiation, the surfaces as described above were contaminated with S. aureus then irradiated for 2 h (corresponds to 5 mW cm^−2) and the phototoxic efficiency was measured.

For `CC(C)(O)c1cc[n+](CC2=Cc3cccc4cccc(c34)C2=O)cc1` [SAPN-19c], the “biological activity against S. aureus on the painted surface coating” value ([1]; 2-C PUR paint system, 1-C PUR paint system, RTV-2 silicone) was “exhibited a biological activity against S. aureus”, the “activity of the RTV-2 silicone system” value ([1]; RTV-2 silicone on PVC, LED 405 nm, 10 mW/cm^2, 5 minutes or 10 minutes) was “demonstrated the activity” and the “phototoxic efficiency after pre-irradiation” value (S. aureus; PUR surface pre-irradiated 5, 25, 50, 75 h at 5 mW cm^−2, then contaminated with S. aureus and irradiated 2 h) was “no difference as regards phototoxic efficiency”. The “extrapolated days of irradiation without difference in phototoxic efficiency” value (S. aureus; corresponds to 75 h at 5 mW cm^−2, assuming office lighting tubes 100 μW cm^−2, 12 hours per day) was 312 days.
